Reference: the supplement of paper PMC12819154, “High-throughput peptide-centric local stability assay extends protein–ligand identification to membrane proteins, tissues and bacteria” (Nature Structural & Molecular Biology, 2025)
This is one part of the list. Most values lie at the level of the controls, where differences are scatter.

Chains of the proteins cited; added tags and fusions are not shown. Lines headed by an entry give the natural chain unless they say otherwise; changes in a name come on top.
UniProt P77239: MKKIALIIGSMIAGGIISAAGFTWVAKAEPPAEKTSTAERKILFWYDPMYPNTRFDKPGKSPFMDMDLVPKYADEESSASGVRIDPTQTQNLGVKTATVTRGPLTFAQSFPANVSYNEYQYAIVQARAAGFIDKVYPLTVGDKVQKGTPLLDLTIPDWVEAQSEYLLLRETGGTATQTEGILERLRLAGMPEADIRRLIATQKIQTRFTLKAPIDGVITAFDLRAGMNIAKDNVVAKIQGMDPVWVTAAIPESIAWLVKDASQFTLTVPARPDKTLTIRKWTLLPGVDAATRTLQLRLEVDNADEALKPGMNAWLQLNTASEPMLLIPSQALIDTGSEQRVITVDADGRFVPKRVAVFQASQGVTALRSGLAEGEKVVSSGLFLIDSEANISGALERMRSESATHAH
UniProt P77395: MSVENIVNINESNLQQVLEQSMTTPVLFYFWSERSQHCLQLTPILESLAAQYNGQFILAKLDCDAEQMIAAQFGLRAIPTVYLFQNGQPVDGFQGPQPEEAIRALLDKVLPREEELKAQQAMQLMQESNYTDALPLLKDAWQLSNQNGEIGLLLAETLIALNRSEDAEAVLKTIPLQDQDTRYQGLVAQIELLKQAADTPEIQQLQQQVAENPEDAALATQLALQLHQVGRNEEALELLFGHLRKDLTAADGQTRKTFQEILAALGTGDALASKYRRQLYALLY
UniProt P77180: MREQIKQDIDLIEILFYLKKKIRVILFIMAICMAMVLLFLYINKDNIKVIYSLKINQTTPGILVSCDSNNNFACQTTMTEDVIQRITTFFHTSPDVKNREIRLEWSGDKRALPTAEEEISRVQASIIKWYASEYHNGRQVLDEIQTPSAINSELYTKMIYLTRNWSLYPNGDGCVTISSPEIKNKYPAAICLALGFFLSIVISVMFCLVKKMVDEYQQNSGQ
UniProt P77473: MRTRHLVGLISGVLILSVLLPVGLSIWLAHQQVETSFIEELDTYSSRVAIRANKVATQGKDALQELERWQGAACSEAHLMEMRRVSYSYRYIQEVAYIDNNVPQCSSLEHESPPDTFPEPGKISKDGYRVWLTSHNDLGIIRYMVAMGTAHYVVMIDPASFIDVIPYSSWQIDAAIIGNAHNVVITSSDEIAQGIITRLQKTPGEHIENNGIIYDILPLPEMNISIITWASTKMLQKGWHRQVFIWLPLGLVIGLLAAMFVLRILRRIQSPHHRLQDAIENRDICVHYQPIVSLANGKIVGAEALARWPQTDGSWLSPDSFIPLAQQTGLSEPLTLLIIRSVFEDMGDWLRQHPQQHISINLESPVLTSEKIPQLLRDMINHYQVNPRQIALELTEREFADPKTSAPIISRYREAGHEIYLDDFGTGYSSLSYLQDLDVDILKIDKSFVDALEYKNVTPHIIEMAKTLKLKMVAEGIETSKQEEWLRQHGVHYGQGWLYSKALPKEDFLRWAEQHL
UniProt P76296: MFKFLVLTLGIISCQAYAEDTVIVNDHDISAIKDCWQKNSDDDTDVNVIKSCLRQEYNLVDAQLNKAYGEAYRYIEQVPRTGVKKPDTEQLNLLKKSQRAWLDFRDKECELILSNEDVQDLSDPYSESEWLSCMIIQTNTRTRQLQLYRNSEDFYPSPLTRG
UniProt P76206: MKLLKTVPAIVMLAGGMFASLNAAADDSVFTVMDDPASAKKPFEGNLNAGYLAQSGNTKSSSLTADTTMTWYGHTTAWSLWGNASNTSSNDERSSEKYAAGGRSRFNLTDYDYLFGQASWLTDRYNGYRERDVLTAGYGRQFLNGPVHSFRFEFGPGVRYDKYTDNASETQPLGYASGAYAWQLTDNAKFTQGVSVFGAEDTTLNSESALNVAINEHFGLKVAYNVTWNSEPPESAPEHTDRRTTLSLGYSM
UniProt P77375: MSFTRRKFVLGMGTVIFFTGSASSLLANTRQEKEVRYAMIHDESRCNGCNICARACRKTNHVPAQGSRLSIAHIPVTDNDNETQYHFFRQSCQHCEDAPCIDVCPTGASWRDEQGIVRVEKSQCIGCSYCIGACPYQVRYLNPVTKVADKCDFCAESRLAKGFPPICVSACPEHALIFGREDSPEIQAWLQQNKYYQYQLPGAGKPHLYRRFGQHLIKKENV
UniProt P76182: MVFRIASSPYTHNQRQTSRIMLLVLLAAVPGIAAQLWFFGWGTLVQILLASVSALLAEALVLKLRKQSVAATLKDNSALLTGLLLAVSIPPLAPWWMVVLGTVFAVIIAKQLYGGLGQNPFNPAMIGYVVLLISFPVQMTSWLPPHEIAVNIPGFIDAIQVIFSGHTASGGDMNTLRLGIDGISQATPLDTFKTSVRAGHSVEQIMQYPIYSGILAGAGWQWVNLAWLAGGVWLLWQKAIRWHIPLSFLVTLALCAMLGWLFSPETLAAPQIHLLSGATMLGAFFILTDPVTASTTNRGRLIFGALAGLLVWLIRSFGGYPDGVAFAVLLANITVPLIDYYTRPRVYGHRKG
UniProt P76510: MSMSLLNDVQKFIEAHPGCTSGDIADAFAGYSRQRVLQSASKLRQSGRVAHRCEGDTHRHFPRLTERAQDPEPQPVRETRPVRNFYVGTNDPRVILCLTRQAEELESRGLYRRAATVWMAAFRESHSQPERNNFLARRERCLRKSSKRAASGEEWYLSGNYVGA
UniProt P77434: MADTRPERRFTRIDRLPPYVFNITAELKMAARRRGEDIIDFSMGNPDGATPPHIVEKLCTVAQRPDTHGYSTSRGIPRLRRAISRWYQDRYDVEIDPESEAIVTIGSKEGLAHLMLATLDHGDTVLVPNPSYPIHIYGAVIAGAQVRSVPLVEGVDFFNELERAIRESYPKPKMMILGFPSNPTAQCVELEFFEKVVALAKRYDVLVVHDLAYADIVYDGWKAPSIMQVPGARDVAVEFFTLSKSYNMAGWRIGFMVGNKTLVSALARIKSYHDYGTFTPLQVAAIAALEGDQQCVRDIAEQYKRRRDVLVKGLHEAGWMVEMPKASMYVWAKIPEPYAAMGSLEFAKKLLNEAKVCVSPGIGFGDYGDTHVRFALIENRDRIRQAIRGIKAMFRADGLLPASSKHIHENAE
UniProt P77181: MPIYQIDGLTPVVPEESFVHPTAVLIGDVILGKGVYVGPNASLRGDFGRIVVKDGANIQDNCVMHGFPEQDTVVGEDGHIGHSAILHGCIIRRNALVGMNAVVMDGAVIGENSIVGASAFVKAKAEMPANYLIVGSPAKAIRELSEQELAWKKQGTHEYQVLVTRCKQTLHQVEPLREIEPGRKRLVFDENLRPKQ
UniProt P75988: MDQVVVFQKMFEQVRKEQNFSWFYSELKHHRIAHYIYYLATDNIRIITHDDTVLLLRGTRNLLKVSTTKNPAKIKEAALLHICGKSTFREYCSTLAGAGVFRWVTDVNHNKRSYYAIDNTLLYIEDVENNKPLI
UniProt P77433: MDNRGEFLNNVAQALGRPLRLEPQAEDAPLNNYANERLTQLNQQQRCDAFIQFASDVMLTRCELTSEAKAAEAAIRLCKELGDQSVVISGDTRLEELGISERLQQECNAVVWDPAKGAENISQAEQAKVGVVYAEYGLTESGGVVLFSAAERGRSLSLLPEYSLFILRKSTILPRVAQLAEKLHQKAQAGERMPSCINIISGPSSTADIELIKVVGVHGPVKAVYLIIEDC
UniProt P76043: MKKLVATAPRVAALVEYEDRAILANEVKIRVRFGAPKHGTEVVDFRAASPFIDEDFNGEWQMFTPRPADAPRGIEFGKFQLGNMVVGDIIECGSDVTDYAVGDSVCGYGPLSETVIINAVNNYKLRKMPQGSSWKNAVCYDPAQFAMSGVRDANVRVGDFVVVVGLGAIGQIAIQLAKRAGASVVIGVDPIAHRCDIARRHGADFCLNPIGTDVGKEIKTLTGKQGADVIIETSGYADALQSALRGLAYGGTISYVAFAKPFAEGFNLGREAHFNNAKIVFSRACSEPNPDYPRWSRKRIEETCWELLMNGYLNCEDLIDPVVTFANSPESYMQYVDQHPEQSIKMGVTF
UniProt P77399: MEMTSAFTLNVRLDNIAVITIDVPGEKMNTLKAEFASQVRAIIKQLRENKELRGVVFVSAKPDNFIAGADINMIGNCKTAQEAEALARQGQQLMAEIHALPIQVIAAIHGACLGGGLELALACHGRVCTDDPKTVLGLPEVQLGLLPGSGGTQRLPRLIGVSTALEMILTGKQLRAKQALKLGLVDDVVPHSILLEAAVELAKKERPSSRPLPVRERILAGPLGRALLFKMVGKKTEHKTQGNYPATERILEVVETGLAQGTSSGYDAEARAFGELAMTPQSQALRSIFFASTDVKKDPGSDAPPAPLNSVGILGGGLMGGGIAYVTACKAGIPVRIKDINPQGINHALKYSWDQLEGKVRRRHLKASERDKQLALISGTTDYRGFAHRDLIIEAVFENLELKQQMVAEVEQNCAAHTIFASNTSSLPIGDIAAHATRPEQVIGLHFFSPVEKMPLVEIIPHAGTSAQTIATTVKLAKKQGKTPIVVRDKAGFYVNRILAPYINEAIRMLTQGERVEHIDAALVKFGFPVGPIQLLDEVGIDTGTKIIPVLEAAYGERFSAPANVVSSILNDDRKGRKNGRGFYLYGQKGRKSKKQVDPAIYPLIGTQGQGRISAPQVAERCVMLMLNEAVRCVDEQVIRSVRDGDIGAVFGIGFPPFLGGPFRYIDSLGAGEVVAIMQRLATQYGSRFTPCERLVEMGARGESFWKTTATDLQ
UniProt P77265: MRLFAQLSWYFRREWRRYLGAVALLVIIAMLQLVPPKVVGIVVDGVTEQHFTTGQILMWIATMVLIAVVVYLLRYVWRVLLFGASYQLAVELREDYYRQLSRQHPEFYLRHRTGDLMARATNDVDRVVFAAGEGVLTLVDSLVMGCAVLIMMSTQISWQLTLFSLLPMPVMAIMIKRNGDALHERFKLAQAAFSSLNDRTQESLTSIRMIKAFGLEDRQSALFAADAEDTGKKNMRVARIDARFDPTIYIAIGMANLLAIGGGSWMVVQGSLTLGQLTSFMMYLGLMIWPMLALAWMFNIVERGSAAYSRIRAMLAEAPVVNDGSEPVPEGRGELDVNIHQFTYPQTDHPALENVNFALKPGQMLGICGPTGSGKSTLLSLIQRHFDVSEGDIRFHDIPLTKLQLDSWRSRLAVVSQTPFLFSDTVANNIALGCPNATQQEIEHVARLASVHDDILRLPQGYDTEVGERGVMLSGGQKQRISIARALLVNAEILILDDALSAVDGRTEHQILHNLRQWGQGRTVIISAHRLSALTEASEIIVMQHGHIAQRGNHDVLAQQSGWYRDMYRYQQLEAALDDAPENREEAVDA
UniProt P76016: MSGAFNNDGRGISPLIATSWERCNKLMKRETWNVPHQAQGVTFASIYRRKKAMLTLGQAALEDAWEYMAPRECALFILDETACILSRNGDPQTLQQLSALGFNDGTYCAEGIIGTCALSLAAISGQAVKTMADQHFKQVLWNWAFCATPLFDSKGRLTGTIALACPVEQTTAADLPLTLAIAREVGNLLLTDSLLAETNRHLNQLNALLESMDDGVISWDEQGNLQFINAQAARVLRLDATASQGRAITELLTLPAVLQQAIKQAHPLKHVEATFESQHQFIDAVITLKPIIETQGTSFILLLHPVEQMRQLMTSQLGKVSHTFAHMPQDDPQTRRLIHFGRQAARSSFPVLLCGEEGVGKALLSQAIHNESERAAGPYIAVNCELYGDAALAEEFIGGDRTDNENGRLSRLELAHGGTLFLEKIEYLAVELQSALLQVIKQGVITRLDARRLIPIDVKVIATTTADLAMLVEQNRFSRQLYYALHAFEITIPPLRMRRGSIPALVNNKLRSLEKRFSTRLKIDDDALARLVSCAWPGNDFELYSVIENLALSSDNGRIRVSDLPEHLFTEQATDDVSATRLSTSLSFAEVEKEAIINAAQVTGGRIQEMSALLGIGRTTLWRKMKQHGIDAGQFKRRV
UniProt P76134: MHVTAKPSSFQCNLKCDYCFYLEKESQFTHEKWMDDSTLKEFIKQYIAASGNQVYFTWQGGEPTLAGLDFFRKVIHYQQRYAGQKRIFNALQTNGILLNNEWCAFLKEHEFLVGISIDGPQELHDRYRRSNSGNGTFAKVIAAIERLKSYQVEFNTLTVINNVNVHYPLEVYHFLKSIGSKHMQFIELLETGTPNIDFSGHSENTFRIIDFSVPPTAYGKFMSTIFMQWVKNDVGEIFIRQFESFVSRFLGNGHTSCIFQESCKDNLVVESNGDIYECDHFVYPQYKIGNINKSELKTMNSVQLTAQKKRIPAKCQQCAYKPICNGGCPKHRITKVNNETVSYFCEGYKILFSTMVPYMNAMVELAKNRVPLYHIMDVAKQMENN
UniProt P76555: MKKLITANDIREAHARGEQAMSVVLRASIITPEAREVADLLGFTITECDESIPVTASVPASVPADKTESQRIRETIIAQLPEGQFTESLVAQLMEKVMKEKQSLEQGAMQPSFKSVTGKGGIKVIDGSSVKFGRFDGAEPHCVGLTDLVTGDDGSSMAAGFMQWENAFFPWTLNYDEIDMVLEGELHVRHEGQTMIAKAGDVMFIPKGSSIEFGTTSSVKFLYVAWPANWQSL

Compound: CC1(C)S[C@@H]2[C@H](NC(=O)[C@H](N)c3ccccc3)C(=O)N2[C@H]1C(=O)O [ampicillin]
Test: log2 fold change of tryptic peptide abundance, ligand vs vehicle (limited proteolysis) (log2 ratio); higher = more trypsin-susceptible (destabilized)
Settings: ligand concentration: 10 uM; sample: E. coli crude lysate

Target | log2 fold change
UniProt P77239 (peptide sequence: IDPTQTQNLGVK, peptide start residue: 84) | 0.141
UniProt P77395 (peptide sequence: KTFQEILAALGTGDALASK, peptide start residue: 256) | 0.68
UniProt P77180 (peptide sequence: LEWSGDKR, peptide start residue: 103) | 0.268
UniProt P77473 (peptide sequence: NVTPHIIEMAK, peptide start residue: 456) | 0.469
UniProt P77610 (peptide sequence: WLNAHEEGYHK, peptide start residue: 18) | -0.0129
UniProt P76296 (peptide sequence: NSDDDTDVNVIK, peptide start residue: 39) | 0.353
UniProt P77215 (peptide sequence: AWFTGGATAEK, peptide start residue: 11) | -0.146
UniProt P76206 (peptide sequence: QFLNGPVHSFR, peptide start residue: 141) | 0.586
UniProt P77375 (peptide sequence: VADKCDFCAESR, peptide start residue: 147) | 0.323
UniProt P76182 (peptide sequence: IASSPYTHNQR, peptide start residue: 5) | -0.391
UniProt P76510 (peptide sequence: VILCLTR, peptide start residue: 94) | -0.0662
UniProt P77434 (peptide sequence: DIAEQYKR, peptide start residue: 298) | 0.284
UniProt P77309 (peptide sequence: LSPAGHNFLR, peptide start residue: 57) | 0.132
UniProt P77181 (peptide sequence: LVFDENLRPK, peptide start residue: 186) | -0.153
UniProt P76520 (peptide sequence: QYYEANLALK, peptide start residue: 186) | -0.118
UniProt P75919 (peptide sequence: EQSSTLHDR, peptide start residue: 350) | 0.226

A different layout for part of the listing above:

| Target | log2 fold change |
| --- | --- |
| UniProt P77610 (peptide sequence: WLNAHEEGYHK, peptide start residue: 18) | -0.0129 |
| UniProt P76296 (peptide sequence: NSDDDTDVNVIK, peptide start residue: 39) | 0.353 |
| UniProt P77215 (peptide sequence: AWFTGGATAEK, peptide start residue: 11) | -0.146 |
| UniProt P76206 (peptide sequence: QFLNGPVHSFR, peptide start residue: 141) | 0.586 |
| UniProt P77375 (peptide sequence: VADKCDFCAESR, peptide start residue: 147) | 0.323 |
| UniProt P76182 (peptide sequence: IASSPYTHNQR, peptide start residue: 5) | -0.391 |
| UniProt P76510 (peptide sequence: VILCLTR, peptide start residue: 94) | -0.0662 |

Additional records.

Target | log2 fold change
UniProt P75988 (peptide sequence: VSTTKNPAK, peptide start residue: 65) | 0.236
UniProt P77433 (peptide sequence: SLSLLPEYSLFILRK, peptide start residue: 155) | -0.333
UniProt P77607 (peptide sequence: RHWNNGIIG, peptide start residue: 224) | 0.311
UniProt P76043 (peptide sequence: EAHFNNAK, peptide start residue: 271) | -0.303
UniProt P77338 (peptide sequence: ASSNGDLPTK, peptide start residue: 35) | 0.276
UniProt P77399 (peptide sequence: TAQEAEALAR, peptide start residue: 79) | -0.297
UniProt P76340 (peptide sequence: QHHALNSTLEISGLR, peptide start residue: 117) | 0.169
UniProt P77265 (peptide sequence: QHPEFYLR, peptide start residue: 103) | -0.208
UniProt P76016 (peptide sequence: VSHTFAHMPQDDPQTR, peptide start residue: 320) | -0.35
UniProt P76148 (peptide sequence: WHNIPQGVSLSEEQQR, peptide start residue: 87) | 0.174
UniProt P76134 (peptide sequence: ESQFTHEK, peptide start residue: 25) | -0.78
UniProt P76502 (peptide sequence: LMANWLK, peptide start residue: 33) | -0.153
UniProt P76014 (peptide sequence: VVEKLPAIADKDIGFILK, peptide start residue: 49) | 0.0681
UniProt P76555 (peptide sequence: AGDVMFIPK, peptide start residue: 199) | 0.137
UniProt P76046 (peptide sequence: LKNELNALVNR, peptide start residue: 4) | -0.372
